PMC7819943, “Rice protein-binding microarrays: a tool to detect cis-acting elements near promoter regions in rice”
The list shows a part of the results.

The sequences below were run against T1, OsSMF1 (Oryza sativa, UniProt Q6ZLB0 1-436) (assay: protein-binding microarray (RPBM); PBS, 2% BSA, 51.3 ng/ul salmon testes DNA, 50 uM zinc acetate, 200 nM TF, 25 C, 1 h; high values mean tight binding). Conditions: protein: recombinant; tags: N-terminal polyhistidine and DsRed monomer fusion (pET32a); chain copies: 2; label: CyDye5-dUTP incorporated in the synthesized complementary strand; 3' TTTTT single-stranded linker to array surface; dsDNA, one strand shown.
T1 sequence: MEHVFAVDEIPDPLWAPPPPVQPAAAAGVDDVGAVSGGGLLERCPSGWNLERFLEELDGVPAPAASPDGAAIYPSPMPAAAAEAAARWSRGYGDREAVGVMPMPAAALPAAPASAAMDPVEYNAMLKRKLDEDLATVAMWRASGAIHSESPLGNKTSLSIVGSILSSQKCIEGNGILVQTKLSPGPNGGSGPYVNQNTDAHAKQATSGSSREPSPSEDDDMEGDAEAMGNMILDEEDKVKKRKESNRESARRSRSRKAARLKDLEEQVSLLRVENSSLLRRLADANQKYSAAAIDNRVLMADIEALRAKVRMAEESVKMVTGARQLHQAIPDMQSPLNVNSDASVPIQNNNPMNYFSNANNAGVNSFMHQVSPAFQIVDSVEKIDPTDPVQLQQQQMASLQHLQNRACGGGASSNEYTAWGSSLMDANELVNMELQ
In short: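 Binding signal here means per-feature fluorescence intensity in arbitrary units. The values were read on an Axon 4000B scanner after a custom Agilent array, double-stranded by primer extension with Cy5-dUTP, was incubated with 200 nM protein at 25 °C for 1 h in PBS with 2% BSA, salmon testes DNA and 50 µM zinc acetate, then washed. The proteins were transcription factors with an N-terminal polyhistidine tag and DsRed, expressed in E. coli BL21-CodonPlus and purified on Ni–NTA.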

Row | Sequence | binding signal
1 | CCCCTCTTATAACGCGTCGCCTTCCCTTCGCCATGTCCGTCGGAGTCACCTAGTGCAG | 18400 fluorescence intensity (a.u.)
2 | ACAGTTTGTTAGCCAGCCATTTGATTGTGACTTGCCATATCGGAGTCACCTAGTGCAG | 3410 fluorescence intensity (a.u.)
3 | GTTCATGGCGGCGTCGAACGTGTCCCTGATGTAGCCGACGCGGAGTCACCTAGTGCAG | 3270 fluorescence intensity (a.u.)
4 | ATGGAACGACCACGTCATCTCAAAAGGTGAATCCATACATCGGAGTCACCTAGTGCAG | 11600 fluorescence intensity (a.u.)
5 | ACTAGCAGTGAAAGCAAATGCAACTCTGCAACTGCAAAGTCGGAGTCACCTAGTGCAG | 10600 fluorescence intensity (a.u.)
6 | TCCTTTCCACCAATCCACCCTGCCACCTCGGCTCCCACCGCGGAGTCACCTAGTGCAG | 4090 fluorescence intensity (a.u.)
7 | GTGTATAATTCGCATGTCCCTGCACCGCCTAACATGCTGACGGAGTCACCTAGTGCAG | 3250 fluorescence intensity (a.u.)
8 | GGCGAGAGCATCGGTGTTGGTGACGAGGGTCGTAGATCCACGGAGTCACCTAGTGCAG | 4190 fluorescence intensity (a.u.)
9 | TGGGTCGGCATCCTCGGTGTTGATAGTTATAGCCCAGTAGCGGAGTCACCTAGTGCAG | 3280 fluorescence intensity (a.u.)
10 | TTTACATCACAAAAGAATTACCGGCCCCAACAAAATAATACGGAGTCACCTAGTGCAG | 18600 fluorescence intensity (a.u.)
11 | GTGCCATGCCAGGGAAGCTTTGAGGTGCCACGTGGCCCAACGGAGTCACCTAGTGCAG | 18800 fluorescence intensity (a.u.)
12 | GCCCAACTACCGTTCTCGTATGACAGTGCAAATGTCATGCCGGAGTCACCTAGTGCAG | 4130 fluorescence intensity (a.u.)
13 | CCACGAGATACTACTATCGCCGCCGCCGCGGGCGTGGCGCCGGAGTCACCTAGTGCAG | 3830 fluorescence intensity (a.u.)
14 | GAGAGAGAGAGAGAGAAAGCGCCACGCCCGCGATATTATTCGGAGTCACCTAGTGCAG | 3180 fluorescence intensity (a.u.)
15 | GAGAAGGCGAGGCGGCGCTGGCGAGCGGTGAAAGGATGGGCGGAGTCACCTAGTGCAG | 5090 fluorescence intensity (a.u.)
16 | TAGCAAGTACTCCTACGTGCATACCACAGCCTGCTATCTTCGGAGTCACCTAGTGCAG | 3450 fluorescence intensity (a.u.)
17 | AAGTTGAAACCGCGGCGTCATCATCATCTCGATATTCACCCGGAGTCACCTAGTGCAG | 5580 fluorescence intensity (a.u.)
18 | TAAAATTTAAATTTTGGCTAATAAGTATAAGCATAACTGTCGGAGTCACCTAGTGCAG | 34300 fluorescence intensity (a.u.)
19 | GTGTGTGTGTGTGTGTGTGTGTGTGAGAGAGAGAGAGAGACGGAGTCACCTAGTGCAG | 3250 fluorescence intensity (a.u.)
20 | TGTGGCGAGCAGGTGACAAGCACACGTACGTGAGGGTAATCGGAGTCACCTAGTGCAG | 3470 fluorescence intensity (a.u.)
21 | AAGATGAAACTGACACATGCACCACTCCCTCTCTTTCTCTCGGAGTCACCTAGTGCAG | 4840 fluorescence intensity (a.u.)

Row | Sequence | binding signal
22 | GGTGTGAGTGTGATGTTGCTCGTGTAATGATGCGTGTGCGCGGAGTCACCTAGTGCAG | 5000 fluorescence intensity (a.u.)
23 | GCCTCAAAGGCCCACGTGGGGCCCAAGTAAATTTCGGCCCCGGAGTCACCTAGTGCAG | 5830 fluorescence intensity (a.u.)
24 | CCACCACGCGAACGACGACTCGATCAACATCACCAGCCAGCGGAGTCACCTAGTGCAG | 3170 fluorescence intensity (a.u.)
25 | ATCCAAATTGGACCCATCTAGTTGCCCCGGCCCAACACGGCGGAGTCACCTAGTGCAG | 17700 fluorescence intensity (a.u.)
26 | CGAGCTGCTTAAACCTAACTCCACCTCTAGTTCATTTTGTCGGAGTCACCTAGTGCAG | 3380 fluorescence intensity (a.u.)
27 | TGAACAAACAAATACTAGTCACCGTCACGTTCGCTAGAGCCGGAGTCACCTAGTGCAG | 4910 fluorescence intensity (a.u.)
28 | GGTGACAATTGTCATTTGCTCAGCAACTAACATTACTAAACGGAGTCACCTAGTGCAG | 18200 fluorescence intensity (a.u.)
29 | TGCACCATTGCCCTCAAGGGATGGTGTTGGTAGGACACATCGGAGTCACCTAGTGCAG | 21700 fluorescence intensity (a.u.)
30 | GTCAGCGGTTGGTGCCGCACAATTGTCTTTAAATTATTTGCGGAGTCACCTAGTGCAG | 3350 fluorescence intensity (a.u.)
31 | GTATGTGTACTCTTGCTGTGATGTGTGGTCGATCGAGTCACGGAGTCACCTAGTGCAG | 5110 fluorescence intensity (a.u.)
32 | GAACATATGACGTTTGCTGCTTGTACAAAGGAATCCCCTCCGGAGTCACCTAGTGCAG | 3720 fluorescence intensity (a.u.)
33 | GCATCACACACTCGTCAGCAACACGTCTTACATATTTCACCGGAGTCACCTAGTGCAG | 11300 fluorescence intensity (a.u.)
34 | CGTGGACAAAATGACAAACGATAGGGTGACATGACACACCCGGAGTCACCTAGTGCAG | 4090 fluorescence intensity (a.u.)
35 | GTCATATGATTTCCACGTGTCATTAACCTATGAAAGTGTGCGGAGTCACCTAGTGCAG | 15800 fluorescence intensity (a.u.)
36 | TCTCCTCTAATCTTTCTTCCAGCTCACCAAAGAAATCCACCGGAGTCACCTAGTGCAG | 3300 fluorescence intensity (a.u.)
37 | TGATTGTGTGATTGATGATTAGTGTGTGTATGACTGTATCCGGAGTCACCTAGTGCAG | 6180 fluorescence intensity (a.u.)
38 | CTCGTCTTCAGAAACAAAAGATGACTGTTGTTGTTGGCCACGGAGTCACCTAGTGCAG | 4000 fluorescence intensity (a.u.)
39 | TTCCATTCTACTCCGGCCATGGCCTACGGCGCTCAGCACGCGGAGTCACCTAGTGCAG | 3530 fluorescence intensity (a.u.)
40 | CGTGCGACCCAGATCTCGCCACGTATGCGCGCGGATCGGCCGGAGTCACCTAGTGCAG | 10800 fluorescence intensity (a.u.)
41 | TATAGCTAACCGAACTATTAATTGCGTGTACAACAAAATACGGAGTCACCTAGTGCAG | 3180 fluorescence intensity (a.u.)
42 | AAATCAGTCATCATATATAAAGTACTATTTATGTTTTATCCGGAGTCACCTAGTGCAG | 3730 fluorescence intensity (a.u.)

3 entries from above, with tabs.
Row	Sequence	binding signal
29	TGCACCATTGCCCTCAAGGGATGGTGTTGGTAGGACACATCGGAGTCACCTAGTGCAG	21700 fluorescence intensity (a.u.)
30	GTCAGCGGTTGGTGCCGCACAATTGTCTTTAAATTATTTGCGGAGTCACCTAGTGCAG	3350 fluorescence intensity (a.u.)
31	GTATGTGTACTCTTGCTGTGATGTGTGGTCGATCGAGTCACGGAGTCACCTAGTGCAG	5110 fluorescence intensity (a.u.)
